According to patent US20140350088:
For at least one entry, the source does not settle the construct or the ends of the probe. Weaker means in comparison with the reference protein, sequence or condition of that experiment. For part of these data: Where a protein sequence is shown, tags need not be part of it.

Amino acid sequences for entries named in this document (tags omitted). Residues count along the entry.
UniProt P01275, 53-81: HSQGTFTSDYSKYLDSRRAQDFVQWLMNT

How the values were obtained:
[1] = biological target: T1, human alpha-CGRP (Homo sapiens) (UniProt P06881); assay: SPR; conditions: L-RNA, synthetic protein, mirror-image nucleic acid
T1 sequence: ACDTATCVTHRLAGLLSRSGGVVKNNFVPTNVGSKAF

[2] = biological target: biotinylated human glucagon (Homo sapiens) (UniProt P01275); assay: competition with a labelled probe; conditions: L-DNA, synthetic protein, mirror-image nucleic acid

## CCGUGCUGUCGGAGACUACTCGUCGAGUAGAAAUAGGUCCCCUCCCACGG [226-F2-001-D20]
[1]; dT at 20, reduced or lost binding vs parent, variant of 226-F2-001
  binding result: binds more weakly

## CCGUGCUGUCGGAGACUACUCGUCGAGUAGAAAUAGGUCCCCUCCCACGG [226-F2-001-D01]
[1]; dC at 1, reduced or lost binding vs parent, variant of 226-F2-001
  binding result: binds more weakly

## CCGUGCUGUCGGAGACUACUCGUCGAGUAGAAAUAGGUCCCCUCCCACGG [226-F2-001-D36]
[1]; dG at 36, reduced or lost binding vs parent, variant of 226-F2-001
  binding result: binds more weakly

## CCGUGCUGUCGGAGACUACUCGUCGAGUAGAAAUAGGUCCCCUCCCACGG [226-F2-001-D45]
[1]; 2'-deoxy at 45, improved vs parent, 37 C, synthetic backbone
  binding result: binds

## CCGUGCUGUCGGAGACUACUCGUCGAGUAGAAAUAGGUCCCCUCCCACGG [226-F2-001-D21]
[1]; dC at 21, reduced or lost binding vs parent, variant of 226-F2-001
  binding result: binds more weakly

## CCGUGCUGUCGGAGACUACUCGUCGAGUAGAAAUAGGUCCCCUCCCACGG [226-F2-001-D39]
[1]; 2'-deoxy at 39, improved vs parent, 37 C, synthetic backbone
  binding result: binds

## CCGUGCUGUCGGAGACUACUCGUCGAGTAGAAAUAGGUCCCCUCCCACGG [226-F2-001-D28]
[1]; dT at 28, improved vs parent, 37 C, synthetic backbone
  binding result: binds

## CCGUGCUGUCGGAGACUACUCGUCGAGUAGAAAUAGGUCCCCUCCCACGG [226-F2-001-D03]
[1]; 2'-deoxy at 3, improved vs parent, 37 C, synthetic backbone
  binding result: binds

## CCGUGCUGUCGGAGACUACUCGUCGAGUAGAAAUAGGUCCCCUCCCACGG [226-F2-001-D49]
[1]; 2'-deoxy at 49, improved vs parent, 37 C, synthetic backbone
  binding result: binds

## CCGUGCUGUCGGAGACUACUCGUCGAGUAGAAAUAGGUCCCCUCCCACGG [226-F2-001-D32]
[1]; dA at 32, reduced or lost binding vs parent, variant of 226-F2-001
  binding result: binds more weakly

## CCGUGCUGUCGGAGACUACUCGUCGAGUAGAAAUAGGUCCCCUCCCACGG [226-F2-001-D13]
[1]; dA at 13, reduced or lost binding vs parent, variant of 226-F2-001
  binding result: binds more weakly

## CCGUGCUGUCGGAGACUACUCGTCGAGUAGAAAUAGGUCCCCUCCCACGG [226-F2-001-D23]
[1]; dT at 23, improved vs parent, 37 C, synthetic backbone
  binding result: binds

## CCGUGCUGUCGGAGACTACUCGUCGAGUAGAAAUAGGUCCCCUCCCACGG [226-F2-001-D17]
[1]; dT at 17, reduced or lost binding vs parent, variant of 226-F2-001
  binding result: binds more weakly

## CCGUGCUGUCGGAGACUACUCGUCGAGUAGAAAUAGGUCCCCUCCCACGG [226-F2-001-D05]
[1]; 2'-deoxy at 5, improved vs parent, 37 C, synthetic backbone
  binding result: binds

## CCGUGCUGUCGGAGACUACUCGUCGAGUAGAAAUAGGUCCCCUCCCACGG [226-F2-001-D30]
[1]; 2'-deoxy at 30, improved vs parent, 37 C, synthetic backbone
  binding result: binds

## CCGUGCUGUCGGAGACUACUCGUCGAGUAGAAAUAGGUCCCCUCCCACGG [226-F2-001-D46]
[1]; 2'-deoxy at 46, improved vs parent, 37 C, synthetic backbone
  binding result: binds

## CCGUGCUGUCGGAGACUACUCGUCGAGUAGAAAUAGGUCCCCUCCCACGG [226-F2-001-D06]
[1]; dC at 6, reduced or lost binding vs parent, variant of 226-F2-001
  binding result: binds more weakly

## CCGUGCUGUCGGAGACUACUCGUCGAGUAGAAAUAGGUCCCCUCCCACGG [226-F2-001-D18]
[1]; dA at 18, reduced or lost binding vs parent, variant of 226-F2-001
  binding result: binds more weakly

## CCGUGCUGUCGGAGACUACUCGUCGAGUAGAAAUAGGUCCCCUCCCACGG [226-F2-001-D48]
[1]; 2'-deoxy at 48, improved vs parent, 37 C, synthetic backbone
  binding result: binds

## CCGUGCUGUCGGAGACUACUCGUCGAGUAGAAAUAGGUCCCCUCCCACGG [226-F2-001-D33]
[1]; 2'-deoxy at 33, improved vs parent, 37 C, synthetic backbone
  binding result: binds

## CCGUGCUGUCGGAGACUACUCGUCGAGUAGAAAUAGGUCCCCUCCCACGG [226-F2-001-D25]
[1]; 2'-deoxy at 25, improved vs parent, 37 C, synthetic backbone
  binding result: binds

## CCGUGCUGUCGGAGACUACUCGUCGAGUAGAAAUAGGUCCCCUCCCACGG [226-F2-001-D27]
[1]; dG at 27, affinity unchanged vs parent, variant of 226-F2-001
  binding result: binds

## CCGUGCTGUCGGAGACUACUCGUCGAGUAGAAAUAGGUCCCCUCCCACGG [226-F2-001-D07]
[1]; dT at 7, reduced or lost binding vs parent, variant of 226-F2-001
  binding result: binds more weakly

## CCGUGCUGUCGGAGACUACUCGUCGAGUAGAAAUAGGUCCCCUCCCACGG [226-F2-001-D24]
[1]; 2'-deoxy at 24, improved vs parent, 37 C, synthetic backbone
  binding result: binds

## CCGUGCUGUCGGAGACUACUCGUCGAGUAGAAAUAGGTCCCCUCCCACGG [226-F2-001-D38]
[1]; dT at 38, reduced or lost binding vs parent, variant of 226-F2-001
  binding result: binds more weakly

## CCGUGCUGUCGGAGACUACUCGUCGAGUAGAAAUAGGUCCCCUCCCACGG [226-F2-001-D47]
[1]; 2'-deoxy at 47, improved vs parent, 37 C, synthetic backbone
  binding result: binds

## CCGUGCUGUCGGAGACUACUCGUCGAGUAGAAAUAGGUCCCCUCCCACGG [226-F2-001-D12]
[1]; dG at 12, reduced or lost binding vs parent, variant of 226-F2-001
  binding result: binds more weakly

## CCGUGCUGUCGGAGACUACUCGUCGAGUAGAAAUAGGUCCCCUCCCACGG [226-F2-001-D08]
[1]; 2'-deoxy at 8, improved vs parent, 37 C, synthetic backbone
  binding result: binds

## CCGUGCUGUCGGAGACUACUCGUCGAGUAGAAAUAGGUCCCCUCCCACGG [226-F2-001-D14]
[1]; 2'-deoxy at 14, improved vs parent, 37 C, synthetic backbone
  binding result: binds

## CCGUGCUGUCGGAGACUACUCGUCGAGUAGAAAUAGGUCCCCUCCCACGG [226-F2-001-D10]
[1]; dC at 10, reduced or lost binding vs parent, variant of 226-F2-001
  binding result: binds more weakly

## CCGUGCUGUCGGAGACUACUCGUCGAGUAGAAAUAGGUCCCCUCCCACGG [226-F2-001-D26]
[1]; 2'-deoxy at 26, improved vs parent, 37 C, synthetic backbone
  binding result: binds

## CCGUGCUGUCGGAGACUACUCGUCGAGUAGAAAUAGGUCCCCUCCCACGG [226-F2-001-D40]
[1]; dC at 40, reduced or lost binding vs parent, variant of 226-F2-001
  binding result: binds more weakly

## CCGUGCUGUCGGAGACUACUCGUCGAGUAGAAAUAGGUCCCCUCCCACGG [226-F2-001-D19]
[1]; dC at 19, among best improved single substitutions, variant of 226-F2-001
  binding result: binds

## CCGTGCUGUCGGAGACUACUCGUCGAGUAGAAAUAGGUCCCCUCCCACGG [226-F2-001-D04]
[1]; dT at 4, affinity unchanged vs parent, variant of 226-F2-001
  binding result: binds

## CCGUGCUGUCGGAGACUACUCGUCGAGUAGAAAUAGGUCCCCUCCCACGG [226-F2-001-D31]
[1]; dA at 31, reduced or lost binding vs parent, variant of 226-F2-001
  binding result: binds more weakly

## CCGUGCUGUCGGAGACUACUCGUCGAGUAGAAAUAGGUCCCCUCCCACGG [226-F2-001-D02]
[1]; dC at 2, reduced or lost binding vs parent, variant of 226-F2-001
  binding result: binds more weakly

## CCGUGCUGUCGGAGACUACUCGUCGAGUAGAAAUAGGUCCCCUCCCACGG [226-F2-001-D50]
[1]; 2'-deoxy at 50, improved vs parent, 37 C, synthetic backbone
  binding result: binds

## CCGUGCUGUCGGAGACUACUCGUCGAGUAGAAAUAGGUCCCCUCCCACGG [226-F2-001-D16]
[1]; 2'-deoxy at 16, improved vs parent, 37 C, synthetic backbone
  binding result: binds

## CCGUGCUGUCGGAGACUACUCGUCGAGUAGAAAUAGGUCCCCUCCCACGG [226-F2-001-D11]
[1]; dG at 11, reduced or lost binding vs parent, variant of 226-F2-001
  binding result: binds more weakly

## CCGUGCUGUCGGAGACUACUCGUCGAGUAGAAAUAGGUCCCCUCCCACGG [226-F2-001-D42]
[1]; 2'-deoxy at 42, improved vs parent, 37 C, synthetic backbone
  binding result: binds

## CCGUGCUGUCGGAGACUACUCGUCGAGUAGAAAUAGGUCCCCTCCCACGG [226-F2-001-D43]
[1]; dT at 43, reduced or lost binding vs parent, variant of 226-F2-001
  binding result: binds more weakly

## GCAGTGGGGAAATGGGAGGGCTAGGTGGAAGGAATCTGAGCTACTGC [257-E1-R43-001]
[2]; ribo at 43, reduced or lost vs parent, 37 C, synthetic backbone
  binding result: binds more weakly

## GCAGTGGGGAAATGGGAGGGCTAGGTGGAAGGAATCTGAGCTACTGC [257-E1-R8-001]
[2]; rG at 8, reduced or lost binding vs parent, variant of 257-E1-001
  binding result: binds more weakly

## GCAGTGGGGAAATGGGAGGGCTAGGTGGAAGGAATCTGAGCTACTGC [257-E1-R46-001]
[2]; rG at 46, affinity unchanged vs parent, variant of 257-E1-001
  binding result: binds

## GCAGTGGGGAAATGGGAGGGCTAGGTGGAAGGAATCTGAGCTACTGC [257-E1-R23-001]
[2]; ribo at 23, reduced or lost vs parent, 37 C, synthetic backbone
  binding result: binds more weakly
